# Data source: PubChem BioAssay AID504791 (Drosophila RNAi Screening Center, 2011)
# Aim: 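Genes of the fly required for silencing by miRNA, siRNA or endo-siRNA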 (primary screen)
# Cells: Drosophila S2-derived reporter cells
# Knock-down reagent: long dsRNA against Drosophila genes, about 150-250 ng dsRNA per well (siRNA assay); about 80-120 ng (miRNA assay)
# Time to read-out: about 5 days (siRNA assay); about 4 days (miRNA assay)
# Conditions: copper sulfate induction of reporters: 25 µM (siRNA assay); 200 mM stated (miRNA assay), 1-2 days before reading
# Detection: 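Per-well ratio of Renilla over firefly light, expressed relative to that plate's average ratio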
# Rule for the call: 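a well was a first-pass pick when its plate-scaled ratio rose above 1.5 (siRNA assay) or 1.6 (miRNA assay), or dropped below 0.6; a gene counted only if two separate dsRNAs agreed on retest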
# The screen tested about 23,000 reagents; shown is a random part of those that have a named target and a result. Over the whole deposit, 199 (0.86%) got an active call. 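Plate-scaled ratios behind the calls are not deposited; printed light signals are raw; many rows marked increased or decreased are still called inactive.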 The numbers tell different reagents against one gene apart. A plus sign joins genes that one reagent is predicted to hit. The record does not give: the direction of the score.
The opening 3 records, to show the layout:
Gene,reagent,stable siRNA reporter change,miRNA reporter change,"stable assay Renilla, run 1 (luminescence)","stable assay firefly, run 1 (luminescence)",outcome
l(2)dtl (lethal-(2)-denticleless),1,reporter ratio lowered past the hit cutoff,,7807,9.75e5,inactive
CG42812 + CG42811,1,,,6166,2.96e5,inactive
CG42812 + CG42811,2,,,6031,3.09e5,inactive

Main list, from the start:
Gene,reagent,stable siRNA reporter change,miRNA reporter change,"stable assay Renilla, run 1 (luminescence)","stable assay firefly, run 1 (luminescence)",outcome
l(2)dtl (lethal-(2)-denticleless),1,reporter ratio lowered past the hit cutoff,,7807,9.75e5,inactive
CG42812 + CG42811,1,,,6166,2.96e5,inactive
CG42812 + CG42811,2,,,6031,3.09e5,inactive
Rpt2 (Regulatory particle triple-A ATPase 2),1,,,9884,3.13e5,inactive
Rpt2 (Regulatory particle triple-A ATPase 2),2,,reporter ratio raised past the hit cutoff,,,active
NPFR (Neuropeptide F receptor),1,,,7119,3.93e5,inactive
nmdyn-D7,1,,,6366,3.76e5,inactive
nmdyn-D6,1,,,4888,4.02e5,inactive
PGAP5 (Post-GPI attachment to proteins 5),1,,,8688,5.51e5,inactive
Arl2 (ADP ribosylation factor-like 2),1,,,6702,4.75e5,inactive
CG34008,1,,,5383,4.85e5,inactive
CG7879,1,,,5431,2.50e5,inactive
Cp36 (Chorion protein 36),1,,,4976,2.78e5,inactive
Dsor1 (Downstream of raf1),1,,reporter ratio lowered past the hit cutoff,4915,3.00e5,active
CG9498,1,,,7851,4.59e5,inactive
tws (twins),1,,,4704,3.33e5,inactive
tws (twins),2,,,9416,4.44e5,inactive
lncRNA:CR42862 + CG33229,1,,,11542,4.63e5,inactive
sff (sugar-free frosting),1,,,8044,3.00e5,inactive
CG17192,1,,,5248,3.54e5,inactive
GstE3 (Glutathione S transferase E3),1,,,5572,3.10e5,inactive
MP1 (Melanization Protease 1),1,,,6192,5.17e5,inactive
Sema1b (Semaphorin 1b),1,,,7574,3.12e5,inactive
Wdr24 (WD repeat domain 24),1,,,7526,4.71e5,inactive
cuff (cutoff),1,,,6986,4.28e5,inactive
Cyp308a1 (Cytochrome P450 308a1),1,,,6544,5.36e5,inactive
CG15046,1,,,7408,5.85e5,inactive
CG9021,1,,,83795,1.62e5,inactive
nur (nemuri),1,,,4463,3.86e5,inactive
Vm32E (Vitelline membrane 32E),1,,,8005,3.57e5,inactive
nAChRalpha1 (nicotinic Acetylcholine Receptor alpha1),1,,,4912,2.98e5,inactive
nAChRalpha1 (nicotinic Acetylcholine Receptor alpha1),2,,,4708,2.24e5,inactive
nAChRalpha1 (nicotinic Acetylcholine Receptor alpha1),3,,,6158,5.06e5,inactive
nAChRalpha1 (nicotinic Acetylcholine Receptor alpha1),4,,,7871,4.66e5,inactive
CG17841,1,,,7490,3.58e5,inactive
Pldn (Pallidin),1,,,7419,4.76e5,inactive
Smg6,1,,,10028,3.41e5,inactive
Brd8 (Bromodomain containing 8),1,,,10079,6.07e5,inactive
P5CS (Delta[1]-pyrroline-5-carboxylate synthase),1,,,9220,3.05e5,inactive
P5CS (Delta[1]-pyrroline-5-carboxylate synthase),2,,,7886,3.83e5,inactive
Ir84a (Ionotropic receptor 84a),1,,,7370,5.00e5,inactive
CG14743,1,,,7215,3.28e5,inactive
CG42490 (retired record),1,,,5175,4.73e5,inactive
CG7789,1,,,8327,4.35e5,inactive
"SmydA-9 (SET and MYND domain containing, arthropod-specific, member 9)",1,,,5690,4.74e5,inactive
Lcp65Ac,1,,,6983,5.89e5,inactive
CG2909,1,,,6055,5.60e5,inactive
CG31231,1,,,4704,3.68e5,inactive
gzl (godzilla E3 ubiquitin protein ligase),1,reporter ratio lowered past the hit cutoff,,3796,3.37e5,inactive
CDase (Ceramidase),1,,,7748,3.66e5,inactive
nvy (nervy),1,reporter ratio raised past the hit cutoff,,13484,2.11e6,inactive
mgl (Megalin),1,,,4703,3.61e5,inactive
mgl (Megalin),2,,,6655,4.49e5,inactive
mgl (Megalin),3,,,5023,4.14e5,inactive
mgl (Megalin),4,,,4324,3.44e5,inactive
Drsl3 (Drosomycin-like 3),1,,,2748,2.98e5,inactive
CG12964,1,,,4664,5.09e5,inactive
CG12964,2,,,5143,3.71e5,inactive
